Record: PubChem BioAssay AID720505 (Drosophila RNAi Screening Center, 2013)
The screen tested about 20,000 reagents; shown is a random part of those with a known target gene and a result. Over the whole deposit, about 2,100 (10%) are marked active. 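Raw plate signals without normalisation; calls rest on control-based scores that were not deposited; replicate 2 separates called from uncalled poorly.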 The record does not give: the amount of reagent, the time to read-out.

- Purpose: 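Knock-downs that reduce calcium influx once internal stores are emptied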 (primary screen)
- Cell system: Drosophila S2R+ cells
- Reagents: long dsRNA against Drosophila genes
- Challenge: thapsigargin (2 µM) in calcium-free buffer to empty internal stores, then 2 mM calcium added back
- Measurement: 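Stores emptied by 2 µM thapsigargin without calcium, then 2 mM calcium re-added; fluo-4 fluorescence followed by FLIPR in 384-well plates, per-well averaged endpoint, raw; two screen passes, some wells retested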
- Direction: calcium signal: higher = more calcium entry after store depletion
- Active means: 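About 1500 genes called as lowering calcium entry, by varying amounts, judged against per-plate control wells with STIM1 as positive and Rho1 as negative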
- Calls: active = called as lowering calcium entry; inactive = not called

Ork1 [DRSC20266]: calcium signal, replicate 1 = 66.8; calcium signal, replicate 2 = 62.7; outcome = active
alpha-Man-IIb [DRSC16898]: calcium signal, replicate 1 = 119; calcium signal, replicate 2 = 179; outcome = inactive
CG5953 [DRSC01546]: calcium signal, replicate 1 = 70.5; calcium signal, replicate 2 = 127; outcome = active
CG5953 [DRSC02914]: calcium signal, replicate 1 = 100; calcium signal, replicate 2 = 99; outcome = inactive
GstD1 [DRSC16683]: calcium signal, replicate 1 = 96.1; calcium signal, replicate 2 = 103; outcome = inactive
CG1428 [DRSC03708]: calcium signal, replicate 1 = 115; calcium signal, replicate 2 = 125; outcome = inactive
ttm50 [DRSC18587]: calcium signal, replicate 1 = 122; calcium signal, replicate 2 = 137; outcome = inactive
tnc [DRSC14647]: calcium signal, replicate 1 = 179; calcium signal, replicate 2 = 98.5; outcome = inactive
CG17362 [DRSC10267]: calcium signal, replicate 1 = 109; calcium signal, replicate 2 = 99.6; outcome = inactive
CG31251 [DRSC16247]: calcium signal, replicate 1 = 151; calcium signal, replicate 2 = 98.3; outcome = inactive
CG9812 [DRSC04566]: calcium signal, replicate 1 = 105; calcium signal, replicate 2 = 160; outcome = inactive
UQCR-C2 [DRSC10405]: calcium signal, replicate 1 = 93.2; calcium signal, replicate 2 = 180; outcome = inactive
Grip75 [DRSC03337]: calcium signal, replicate 1 = 184; calcium signal, replicate 2 = 119; outcome = inactive
CG32081 [DRSC09861]: calcium signal, replicate 1 = 50.1; calcium signal, replicate 2 = 99.5; outcome = inactive
CG31077 [DRSC13805]: outcome = active
Kpc1 [DRSC16107]: calcium signal, replicate 1 = 78; calcium signal, replicate 2 = 129; outcome = active
Irp-1B [DRSC16720]: calcium signal, replicate 1 = 170; calcium signal, replicate 2 = 137; outcome = inactive
Elba3 [DRSC00469]: calcium signal, replicate 1 = 107; calcium signal, replicate 2 = 120; outcome = inactive
Golgin245 [DRSC04374]: calcium signal, replicate 1 = 175; calcium signal, replicate 2 = 96.1; outcome = inactive
Golgin245 [DRSC22012]: calcium signal, replicate 1 = 98.7; calcium signal, replicate 2 = 140; outcome = inactive
drosha [DRSC07607]: calcium signal, replicate 1 = 166; calcium signal, replicate 2 = 111; outcome = inactive
CG8072 [DRSC10960]: calcium signal, replicate 1 = 88.5; calcium signal, replicate 2 = 91.9; outcome = active
Regnase-1 [DRSC14278]: calcium signal, replicate 1 = 117; calcium signal, replicate 2 = 223; outcome = inactive

Continued; the last 3 above are carried over.
drosha [DRSC07607]: calcium signal, replicate 1 = 166; calcium signal, replicate 2 = 111; outcome = inactive
CG8072 [DRSC10960]: calcium signal, replicate 1 = 88.5; calcium signal, replicate 2 = 91.9; outcome = active
Regnase-1 [DRSC14278]: calcium signal, replicate 1 = 117; calcium signal, replicate 2 = 223; outcome = inactive
CPT2 [DRSC08553]: calcium signal, replicate 1 = 152; calcium signal, replicate 2 = 99.4; outcome = inactive
CG2104 [DRSC12304]: calcium signal, replicate 1 = 135; calcium signal, replicate 2 = 142; outcome = inactive
stum [DRSC04268]: calcium signal, replicate 1 = 169; calcium signal, replicate 2 = 130; outcome = inactive
stum [DRSC04270]: calcium signal, replicate 1 = 187; calcium signal, replicate 2 = 85.2; outcome = inactive
CG7714 [DRSC16300]: calcium signal, replicate 1 = 162; calcium signal, replicate 2 = 144; outcome = inactive
CG17190 [DRSC15184]: calcium signal, replicate 1 = 101; calcium signal, replicate 2 = 75; outcome = inactive
EMC6 [DRSC14386]: calcium signal, replicate 1 = 80.5; calcium signal, replicate 2 = 176; outcome = active
shep [DRSC09765]: calcium signal, replicate 1 = 98.4; calcium signal, replicate 2 = 68.1; outcome = inactive
shep [DRSC09771]: calcium signal, replicate 1 = 101; calcium signal, replicate 2 = 78; outcome = inactive
CG5265 [DRSC15756]: calcium signal, replicate 1 = 159; calcium signal, replicate 2 = 161; outcome = inactive
Ogg1 [DRSC17738]: calcium signal, replicate 1 = 158; calcium signal, replicate 2 = 96.7; outcome = inactive
beat-IIa [DRSC14813]: calcium signal, replicate 1 = 138; calcium signal, replicate 2 = 181; outcome = inactive
beat-IIa [DRSC14814]: calcium signal, replicate 1 = 162; calcium signal, replicate 2 = 220; outcome = inactive
